In PubChem BioAssay AID2551 (National Center for Advancing Translational Sciences (NCATS), 2010):
The whole screen tested about 310,000 compounds, of which about 17,000 (5.5%) were called active. Inconclusive results, whose numbers are uncertain, are shown with a selection of clear calls. Calls come from the whole dose curve; as a rule, active = well fitted inhibition curve with a large enough effect; inconclusive = small, poorly fitted or top-dose-only effect, or effect the other way; inactive = no such curve, though single readings can be large or run the other way. Potencies beside an inconclusive call are fits to weak or partial responses and may not hold up.

By UniProt entry, the sequences of proteins in these tests, tags left out. Where a name states a change or a piece, a line headed by the entry shows the natural chain unless it says otherwise.
UniProt P51450: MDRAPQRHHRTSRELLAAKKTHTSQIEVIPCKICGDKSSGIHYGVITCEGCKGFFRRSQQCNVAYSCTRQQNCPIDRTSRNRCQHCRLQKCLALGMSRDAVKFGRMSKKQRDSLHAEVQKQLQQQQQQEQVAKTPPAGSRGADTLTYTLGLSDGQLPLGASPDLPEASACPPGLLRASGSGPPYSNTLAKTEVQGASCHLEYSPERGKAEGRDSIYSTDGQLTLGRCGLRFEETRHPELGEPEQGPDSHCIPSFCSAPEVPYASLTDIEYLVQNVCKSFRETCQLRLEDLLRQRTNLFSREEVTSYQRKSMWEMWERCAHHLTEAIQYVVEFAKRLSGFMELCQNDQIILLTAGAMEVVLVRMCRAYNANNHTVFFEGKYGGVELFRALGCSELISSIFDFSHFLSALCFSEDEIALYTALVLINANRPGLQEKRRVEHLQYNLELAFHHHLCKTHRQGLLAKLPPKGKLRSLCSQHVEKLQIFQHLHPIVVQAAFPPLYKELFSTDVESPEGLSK

Each compound was assayed against Nuclear receptor ROR-gamma (Mus musculus) (UniProt P51450) (assay: qHTS for inhibitors of ROR gamma transcriptional activity). Conditions: Drosophila S2 Gal4-RORgamma UAS-luciferase reporter, 20 h; activity change, negative = inhibition: at 53.6 µM (top of the series).
Outline: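 Stable Schneider cell line, Gal4 DNA-binding domain fused to ROR gamma, UAS-luciferase. Cmpd 1 hr RT → CuSO4 700 uM final → 20 hr RT → luciferase reagent 10 min → luminescence.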
% is set by controls: 0 for no effect and ±100 for the full control effect; potency is the fitted concentration of half-maximal effect.
Note: nearly all actives have a fitted effect of over 60% in size.

Compound	Potency	activity change, negative = inhibition
CCOC(=O)CN(C(=O)CSc1nnc(CNc2ccc(C)cc2C)n1CC)c1ccccc1	inactive	
CCOC(=O)c1sc(NC(=O)c2ccc(Br)o2)cc1C	inconclusive: 3.98 µM [activator, partial curve]	
CC(C)OC(=O)/C(=C\c1ccc2c(c1)c1ccccc1n2C)NC(=O)c1ccccc1	inactive	
O=S(=O)(NCCOCC(F)(F)C(F)F)c1ccc2oc3ccccc3c2c1	inconclusive: 35.5 µM [activator, single point]	
C[C@]12CCC(=O)C=C1CC[C@@H]1[C@@H]2[C@@H](O)C[C@@]2(C)[C@H]1CC[C@]2(O)C(=O)COP(=O)(O)O	inactive	
Cc1cc2nc(-c3ccc(SCc4ccc(C#N)cc4)nc3)[nH]c2cc1C	inconclusive: 0.631 µM [activator, full curve, poor fit]	
COc1cnc(-c2ccccn2)nc1N(C)c1ccccc1	active: 7.94 µM	
Cc1c(N=Cc2c(O)n(C)c(=O)c3ccccc23)c(=O)n(-c2ccccc2)n1C	inactive	
CN(C)c1ncnc2ccc(-c3cccnc3)cc12	inconclusive: 6.31 µM [activator, partial curve, poor fit]	
O=[N+]([O-])c1cccc(/C=N/N2CCN(Cc3ccc(Cl)cc3)CC2)c1	inconclusive: 11.2 µM [activator, partial curve]	
CCn1c(SCC(=O)N2CCc3ccccc3C2)nc2sc(C)c(C)c2c1=O	inconclusive: 11.2 µM [activator, partial curve]	
COc1ccccc1C(=O)NC1CCN(C(=O)Nc2ccc(C)cc2)CC1	inactive	
COc1ccccc1N(C)S(=O)(=O)c1ccc(C(=O)NCC(C)C)cc1	inconclusive: 5.62 µM [inhibitor, single point]	
COc1ccc(Nc2ccc(Nc3ccc(OC)cc3)nn2)cc1	inactive	
Cc1ccc(C(=O)CCNc2ccccc2)o1	inactive	
COc1ccc(N2C(=O)CC(Sc3nc(C)cc(C)c3C#N)C2=O)cc1 (stereo not given)	inconclusive: 25.1 µM [inhibitor, single point]	
COCCNC(=O)CSc1nc2cc(OC)c(OC)cc2c(=O)n1CCC1=CCCCC1	inactive	
CCOc1cc(S(=O)(=O)N(CC)CC)ccc1Cl	inactive	
COc1ccc(C(=O)Nc2ccc(NC(=O)c3cccs3)cc2)cc1Cl	inactive	
O=C(c1ccc2c(=O)n(Cc3ccco3)c(=S)[nH]c2c1)N1CCN(c2ccccc2)CC1	inconclusive: 35.5 µM [inhibitor, single point]	
CCOc1ccc(C(=O)Nc2ccncc2)cc1	inconclusive: 3.16 µM [activator, full curve, poor fit]	
COc1ccc2c(c1)c(C(=O)N/N=C/c1ccc(Cl)cc1)c(C)n2C	inconclusive: 28.2 µM [inhibitor, single point]	
Cc1cccc(NC(=O)CN2CCc3cc4c(cc3C2C)OCCCO4)c1 (stereo not given)	inconclusive: 14.1 µM [activator, single point]	

Compound	Potency	activity change, negative = inhibition
Cc1ncc(CN2CCC(C(=O)Nc3ccc(Oc4cccnc4)cc3)CC2)cn1	inactive	
CN(Cc1ccccc1)Cc1nc2scc(-c3ccccc3)c2c(=O)[nH]1	active: 3.16 µM	
COc1ccc(-c2csc(N3N=C(C)C(C)C3=O)n2)cc1 (stereo not given)	active: 8.91 µM	
COc1ccc2cc(/C=C3\SC(=S)NC3=O)c(N3CCOCC3)nc2c1	inconclusive: 35.5 µM [inhibitor, single point]	
CCOC(=O)c1c(-c2ccc(OC)cc2)csc1NC(=O)CSc1ncnc2sccc12		inactive: -4.53% [at 10 µM]
Cc1cc[n+](CC(=O)c2cccc([N+](=O)[O-])c2)c2ccccc12	inconclusive: 1.26 µM [activator, single point]	
CN1CCN(c2nc3c(c(=O)[nH]c(=O)n3C)n2Cc2ccc([N+](=O)[O-])cc2)CC1	inactive	
Cc1nc2c(n1C1CCCCC1)C(=O)c1ccccc1C2=O	inconclusive: 4.47 µM [inhibitor, partial curve]	
O=C(COc1nc2ccccc2nc1N1CCOCC1)Nc1cccc(S(=O)(=O)N2CCCCC2)c1	inconclusive: 11.2 µM [activator, partial curve]	
Cc1ccc(CNS(=O)(=O)c2ccc(-n3cnnn3)c(C)c2)cc1	inconclusive: 12.6 µM [activator, partial curve]	
COCCn1c(=O)c(-c2cn(C)c3ccccc23)nc2cncnc21	inactive	
CCOC(=O)c1c(NC(=O)CSc2nnc(C)s2)sc2c1CCC(C)C2 (stereo not given)	inconclusive: 7.94 µM [activator, partial curve]	
O=[N+]([O-])c1cc(Br)c(OCc2nnc(-c3ccccc3)o2)c(Br)c1	inconclusive: 3.55 µM [inhibitor, single point]	
O=C(Nc1cccc(F)c1)N1CC2(CCN(C(=O)c3cccc(F)c3)CC2)C1	inactive	
c1ccc(C2Nc3ccccc3Oc3ccccc32)cc1 (stereo not given)	inconclusive: 12.6 µM [activator, partial curve]	
COc1ccc(C2CC(c3ccc(Br)cc3)=NN2C(=O)c2cccnc2)cc1 (stereo not given)	inconclusive: 10 µM [activator, partial curve]	
O=C(N/N=C/c1ccc(Br)cc1)c1ccc(F)cc1	inconclusive: 15.8 µM [inhibitor, single point]	
CNC(=S)Nc1ccc(C)cc1	inconclusive: 22.4 µM [inhibitor, single point]	
CC(C)OCCCN1CN(S(=O)(=O)c2cccs2)c2nc3ccccc3nc21	inconclusive: 35.5 µM [activator, single point]	
COc1ccc(NC(=S)N(CCc2c(C)[nH]c3ccc(C)cc23)Cc2ccco2)cc1	inconclusive: 35.5 µM [inhibitor, single point]	
COc1ccc(/C=C/C(=O)c2ccc3c4c(cccc24)CC3)cc1	inconclusive: 11.2 µM [inhibitor, partial curve, poor fit]	
CCOC(=O)CCC(=O)c1c(C)oc2ccc(OC)cc12	inconclusive: 5.01 µM [inhibitor, partial curve, poor fit]	
